Article PMC10303231
Results are given in words; binding and its absence hold for the method and conditions named. In cells and extracts the contact can be indirect. Some entries that bind do so weakly or less than the wild type. Sequences can lack the tags named with a protein.

Sequences of proteins named here, by UniProt entry; tags and fusion partners are left off.
UniProt Q6L4F8: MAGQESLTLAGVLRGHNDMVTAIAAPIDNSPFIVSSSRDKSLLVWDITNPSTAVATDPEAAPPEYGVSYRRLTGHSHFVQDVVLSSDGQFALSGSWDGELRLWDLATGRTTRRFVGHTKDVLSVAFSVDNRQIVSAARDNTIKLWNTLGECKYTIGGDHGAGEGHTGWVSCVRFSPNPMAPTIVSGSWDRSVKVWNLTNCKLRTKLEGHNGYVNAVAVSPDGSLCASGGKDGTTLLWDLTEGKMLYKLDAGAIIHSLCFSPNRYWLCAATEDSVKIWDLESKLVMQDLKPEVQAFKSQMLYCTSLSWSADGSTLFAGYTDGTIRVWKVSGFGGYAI

Molecular target: T1, Stay-green protein (OsSGR), cYFP fusion (rice (Oryza sativa L.)) (UniProt Q652K1)
T1 sequence: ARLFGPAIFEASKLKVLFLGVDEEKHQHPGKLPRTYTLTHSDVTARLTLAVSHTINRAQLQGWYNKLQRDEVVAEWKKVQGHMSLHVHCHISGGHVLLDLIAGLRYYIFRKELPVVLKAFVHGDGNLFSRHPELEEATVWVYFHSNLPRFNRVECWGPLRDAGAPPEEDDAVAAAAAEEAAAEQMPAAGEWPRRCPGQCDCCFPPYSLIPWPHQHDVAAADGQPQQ
Test: split reporter; BiFC in onion epidermal cells; nEYFP and cEYFP fusion plasmids mixed 1:1 and co-bombarded; 16-24 h at 22 °C in the dark in MS liquid media; confocal microscopy; also after 200 mM NaCl for 30 min

Substance: Receptor for Activated C Kinase1B (OsRACK1B), nYFP fusion (from UniProt Q6L4F8 1-336)
- binding: binds
